# From doi:10.1101/2020.05.04.076752
# Chains of the proteins cited; added tags and fusions are not shown.
# UniProt P35638: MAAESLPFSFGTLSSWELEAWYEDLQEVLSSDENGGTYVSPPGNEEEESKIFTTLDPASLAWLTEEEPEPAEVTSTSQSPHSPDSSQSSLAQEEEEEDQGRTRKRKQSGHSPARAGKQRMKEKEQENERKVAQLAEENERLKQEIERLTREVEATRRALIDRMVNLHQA
# UniProt P05412: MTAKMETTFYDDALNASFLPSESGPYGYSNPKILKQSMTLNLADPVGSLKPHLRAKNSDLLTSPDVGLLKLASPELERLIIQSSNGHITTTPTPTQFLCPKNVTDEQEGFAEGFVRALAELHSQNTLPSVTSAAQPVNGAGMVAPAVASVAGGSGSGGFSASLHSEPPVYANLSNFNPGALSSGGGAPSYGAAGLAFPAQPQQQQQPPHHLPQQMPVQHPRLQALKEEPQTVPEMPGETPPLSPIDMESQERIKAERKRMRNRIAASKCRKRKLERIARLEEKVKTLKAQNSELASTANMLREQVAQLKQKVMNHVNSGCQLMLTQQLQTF
# These are yes or no findings as the source states them, for the method shown. In cells and extracts the contact can be indirect. Some binding calls cover weakened binding; strength is not graded here.
# Target: CHOP-3XFLAG fusion protein (human) (UniProt P35638)
# Test: co-IP
substance,measurement,value
c-JUN-MYC fusion protein (from UniProt P05412 1-331),binding,binds
